In article PMC5090064, “Coordinated regulation of the ESCRT-III component CHMP4C by the chromosomal passenger complex and centralspindlin during cytokinesis” (Open Biology, 2016):
Results are given in words; binding and its absence hold for the method and conditions named. Binding seen in cells or lysates may run through a third protein. A yes stands for co-enrichment or nearness to the bait. Other partners may have been found. Tags and fused reporters may be left off the sequences shown.

Protein sequences, listed by entry. Tags and fused reporters are not part of them.
UniProt Q96GD4: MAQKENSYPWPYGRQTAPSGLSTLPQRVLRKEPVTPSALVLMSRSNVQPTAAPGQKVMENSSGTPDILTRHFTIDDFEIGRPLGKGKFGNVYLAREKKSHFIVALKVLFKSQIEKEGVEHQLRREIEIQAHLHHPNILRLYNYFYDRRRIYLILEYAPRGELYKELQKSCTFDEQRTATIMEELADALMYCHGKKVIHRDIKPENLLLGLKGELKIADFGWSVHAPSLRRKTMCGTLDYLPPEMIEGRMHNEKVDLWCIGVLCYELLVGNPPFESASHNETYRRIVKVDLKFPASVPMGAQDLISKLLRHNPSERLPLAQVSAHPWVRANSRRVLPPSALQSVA
UniProt P30153: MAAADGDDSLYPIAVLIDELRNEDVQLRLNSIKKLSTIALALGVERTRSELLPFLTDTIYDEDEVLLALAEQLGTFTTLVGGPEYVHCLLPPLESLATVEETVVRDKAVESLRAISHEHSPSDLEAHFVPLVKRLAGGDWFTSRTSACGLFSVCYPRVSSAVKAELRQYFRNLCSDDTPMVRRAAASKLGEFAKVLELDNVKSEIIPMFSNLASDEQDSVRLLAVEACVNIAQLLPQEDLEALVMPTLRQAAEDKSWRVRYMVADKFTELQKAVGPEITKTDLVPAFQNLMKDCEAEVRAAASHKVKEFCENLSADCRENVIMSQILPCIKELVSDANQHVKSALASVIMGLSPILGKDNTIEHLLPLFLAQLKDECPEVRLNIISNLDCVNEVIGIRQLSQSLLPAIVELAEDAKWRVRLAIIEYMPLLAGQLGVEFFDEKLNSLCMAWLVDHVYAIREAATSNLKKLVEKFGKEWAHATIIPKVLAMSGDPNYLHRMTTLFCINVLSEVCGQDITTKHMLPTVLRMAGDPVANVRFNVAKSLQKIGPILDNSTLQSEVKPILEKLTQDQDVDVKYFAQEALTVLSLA
UniProt P62136: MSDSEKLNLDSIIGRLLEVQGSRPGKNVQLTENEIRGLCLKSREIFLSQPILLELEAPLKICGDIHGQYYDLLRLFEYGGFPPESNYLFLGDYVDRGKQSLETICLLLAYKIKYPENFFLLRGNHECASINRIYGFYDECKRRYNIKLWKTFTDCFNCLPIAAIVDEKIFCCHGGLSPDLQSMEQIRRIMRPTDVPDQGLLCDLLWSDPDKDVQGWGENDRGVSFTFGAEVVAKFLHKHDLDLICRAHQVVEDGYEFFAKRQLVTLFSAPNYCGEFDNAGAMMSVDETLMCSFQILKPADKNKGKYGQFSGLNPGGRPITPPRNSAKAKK
UniProt Q9NQS7: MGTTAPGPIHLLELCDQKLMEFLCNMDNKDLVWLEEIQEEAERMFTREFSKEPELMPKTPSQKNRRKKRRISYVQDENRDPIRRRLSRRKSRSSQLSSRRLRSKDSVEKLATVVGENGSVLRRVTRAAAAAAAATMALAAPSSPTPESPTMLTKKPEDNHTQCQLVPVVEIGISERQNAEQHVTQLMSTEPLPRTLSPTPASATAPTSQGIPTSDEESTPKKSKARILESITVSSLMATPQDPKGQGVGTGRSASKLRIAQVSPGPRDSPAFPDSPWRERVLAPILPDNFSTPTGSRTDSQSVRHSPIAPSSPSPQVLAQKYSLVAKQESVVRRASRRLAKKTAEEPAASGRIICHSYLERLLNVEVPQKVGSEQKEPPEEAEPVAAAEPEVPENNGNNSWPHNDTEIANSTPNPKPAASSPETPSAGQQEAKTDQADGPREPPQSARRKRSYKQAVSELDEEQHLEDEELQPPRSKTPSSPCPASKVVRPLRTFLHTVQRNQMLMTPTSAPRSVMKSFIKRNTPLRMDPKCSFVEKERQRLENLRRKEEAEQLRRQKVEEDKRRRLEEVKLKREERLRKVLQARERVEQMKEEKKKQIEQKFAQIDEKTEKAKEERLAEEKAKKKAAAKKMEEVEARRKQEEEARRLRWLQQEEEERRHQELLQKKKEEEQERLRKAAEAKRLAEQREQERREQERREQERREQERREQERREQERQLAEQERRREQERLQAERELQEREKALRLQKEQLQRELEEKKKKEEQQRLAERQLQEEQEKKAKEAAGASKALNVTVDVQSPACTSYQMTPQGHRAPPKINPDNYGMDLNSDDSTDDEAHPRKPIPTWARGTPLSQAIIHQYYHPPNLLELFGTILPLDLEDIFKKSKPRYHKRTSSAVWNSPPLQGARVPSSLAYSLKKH
UniProt P67775: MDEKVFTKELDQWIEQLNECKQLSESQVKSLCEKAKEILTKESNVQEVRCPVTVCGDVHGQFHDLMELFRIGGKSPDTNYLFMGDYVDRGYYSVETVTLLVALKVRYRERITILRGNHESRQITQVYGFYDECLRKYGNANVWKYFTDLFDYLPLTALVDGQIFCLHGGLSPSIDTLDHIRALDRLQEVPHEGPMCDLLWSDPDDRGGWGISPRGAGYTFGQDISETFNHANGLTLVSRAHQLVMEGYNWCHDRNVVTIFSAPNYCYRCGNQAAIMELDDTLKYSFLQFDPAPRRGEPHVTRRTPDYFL
UniProt Q8WUM4: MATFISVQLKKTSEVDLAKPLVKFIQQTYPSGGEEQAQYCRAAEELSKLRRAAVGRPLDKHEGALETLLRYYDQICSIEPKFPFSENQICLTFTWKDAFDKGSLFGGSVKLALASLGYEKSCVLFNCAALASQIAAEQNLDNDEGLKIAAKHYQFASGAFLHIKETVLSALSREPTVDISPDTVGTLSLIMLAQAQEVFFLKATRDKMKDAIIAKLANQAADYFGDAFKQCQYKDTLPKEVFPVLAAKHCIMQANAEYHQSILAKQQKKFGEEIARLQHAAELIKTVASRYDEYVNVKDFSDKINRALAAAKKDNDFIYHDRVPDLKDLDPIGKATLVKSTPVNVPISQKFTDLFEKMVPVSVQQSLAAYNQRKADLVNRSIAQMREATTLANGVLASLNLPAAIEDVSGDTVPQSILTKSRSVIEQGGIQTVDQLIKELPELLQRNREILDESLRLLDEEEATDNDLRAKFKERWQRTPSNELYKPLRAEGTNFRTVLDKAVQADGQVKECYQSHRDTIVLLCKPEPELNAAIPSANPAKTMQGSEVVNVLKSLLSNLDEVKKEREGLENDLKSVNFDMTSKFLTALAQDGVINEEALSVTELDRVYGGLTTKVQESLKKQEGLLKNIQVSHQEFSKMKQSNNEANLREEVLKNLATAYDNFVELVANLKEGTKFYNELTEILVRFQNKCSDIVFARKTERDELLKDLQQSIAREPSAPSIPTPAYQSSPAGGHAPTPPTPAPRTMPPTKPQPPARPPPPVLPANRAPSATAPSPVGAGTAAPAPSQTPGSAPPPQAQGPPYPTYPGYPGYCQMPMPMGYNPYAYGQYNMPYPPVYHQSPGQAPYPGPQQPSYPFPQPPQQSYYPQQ

T1: Flag::CHMP4C WT (human) (UniProt Q96CF2)
T1 sequence: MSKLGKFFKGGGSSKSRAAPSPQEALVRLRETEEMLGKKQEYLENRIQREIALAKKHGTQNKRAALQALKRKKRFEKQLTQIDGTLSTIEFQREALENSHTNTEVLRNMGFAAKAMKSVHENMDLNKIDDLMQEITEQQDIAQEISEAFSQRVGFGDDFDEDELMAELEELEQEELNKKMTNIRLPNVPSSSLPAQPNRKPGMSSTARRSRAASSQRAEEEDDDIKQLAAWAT


Target: T1, Flag::CHMP4C WT (human)
Assay: affinity purification with mass spectrometry; anti-Flag M2 magnetic beads; extracts of HeLa Kyoto cells stably expressing Flag::CHMP4C WT synchronized in telophase; 150 mM NaCl, 100 mM KAc, 0.5% NP-40, 4°C; Flag alone as control

Row | binding | Molecule
1 | binds | Aurora B (endogenous) (from UniProt Q96GD4 1-344) (enzyme)
2 | binds | PP2A regulatory subunit A (PPP2R1A) (endogenous) (from UniProt P30153 1-589)
3 | binds | PP1 catalytic subunit (PPP1CA) (endogenous) (from UniProt P62136 1-330) (enzyme)
4 | binds | INCENP (endogenous) (from UniProt Q9NQS7 1-918)
5 | binds | PP2A catalytic subunit (PP2CA) (endogenous) (from UniProt P67775 1-309) (enzyme)
6 | binds | CHMP4B (endogenous) (protein, UniProt Q9H444 1-224) MSVFGKLFGAGGGKAGKGGPTPQEAIQRLRDTEEMLSKKQEFLEKKIEQELTAAKKHGTKNKRAALQALKRKKRYEKQLAQIDGTLSTIEFQREALENANTNTEVLKNMGYAAKAMKAAHDNMDIDKVDELMQDIADQQELAEEISTAISKPVGFGEEFDEDELMAELEELEQEELDKNLLEISGPETVPLPNVPSIALPSKPAKKKEEEDDDMKELENWAGSM
7 | binds | Borealin (endogenous) (protein, UniProt Q53HL2 1-280) MAPRKGSSRVAKTNSLRRRKLASFLKDFDREVEIRIKQIESDRQNLLKEVDNLYNIEILRLPKALREMNWLDYFALGGNKQALEEAATADLDITEINKLTAEAIQTPLKSAKTRKVIQVDEMIVEEEEEEENERKNLQTARVKRCPPSKKRTQSIQGKGKGKRSSRANTVTPAVGRLEVSMVKPTPGLTPRFDSRVFKTPGLRTPAAGERIYNISGNGSPLADSKEIFLTVPVGGGESLRLLASDLQRHSIAQLDPEALGNIKKLSNRLAQICSSIRTHK
8 | binds | KIF23/MKLP1 (endogenous) (protein, UniProt Q02241 1-960) MKSARAKTPRKPTVKKGSQTNLKDPVGVYCRVRPLGFPDQECCIEVINNTTVQLHTPEGYRLNRNGDYKETQYSFKQVFGTHTTQKELFDVVANPLVNDLIHGKNGLLFTYGVTGSGKTHTMTGSPGEGGLLPRCLDMIFNSIGSFQAKRYVFKSNDRNSMDIQCEVDALLERQKREAMPNPKTSSSKRQVDPEFADMITVQEFCKAEEVDEDSVYGVFVSYIEIYNNYIYDLLEEVPFDPIKPKPPQSKLLREDKNHNMYVAGCTEVEVKSTEEAFEVFWRGQKKRRIANTHLNRESSRSHSVFNIKLVQAPLDADGDNVLQEKEQITISQLSLVDLAGSERTNRTRAEGNRLREAGNINQSLMTLRTCMDVLRENQMYGTNKMVPYRDSKLTHLFKNYFDGEGKVRMIVCVNPKAEDYEENLQVMRFAEVTQEVEVARPVDKAICGLTPGRRYRNQPRGPVGNEPLVTDVVLQSFPPLPSCEILDINDEQTLPRLIEALEKRHNLRQMMIDEFNKQSNAFKALLQEFDNAVLSKENHMQGKLNEKEKMISGQKLEIERLEKKNKTLEYKIEILEKTTTIYEEDKRNLQQELETQNQKLQRQFSDKRRLEARLQGMVTETTMKWEKECERRVAAKQLEMQNKLWVKDEKLKQLKAIVTEPKTEKPERPSRERDREKVTQRSVSPSPVPLSSNYIAQISNGQQLMSQPQLHRRSNSCSSISVASCISEWEQKIPTYNTPLKVTSIARRRQQEPGQSKTCIVSDRRRGMYWTEGREVVPTFRNEIEIEEDHCGRLLFQPDQNAPPIRLRHRRSRSAGDRWVDHKPASNMQTETVMQPHVPHAITVSVANEKALAKCEKYMLTHQELASDGEIETKLIKGDIYKTRGGGQSVQFTDIETLKQESPNGSRKRRSSTVAPAQPDGAESEWTDVETRCSVAVEMRAGSQLGPGYQHHAQPKRKKP
9 | binds | MgcRacGAP/RacGAP1 (endogenous) (protein, UniProt Q9H0H5 1-632) MDTMMLNVRNLFEQLVRRVEILSEGNEVQFIQLAKDFEDFRKKWQRTDHELGKYKDLLMKAETERSALDVKLKHARNQVDVEIKRRQRAEADCEKLERQIQLIREMLMCDTSGSIQLSEEQKSALAFLNRGQPSSSNAGNKRLSTIDESGSILSDISFDKTDESLDWDSSLVKTFKLKKREKRRSTSRQFVDGPPGPVKKTRSIGSAVDQGNESIVAKTTVTVPNDGGPIEAVSTIETVPYWTRSRRKTGTLQPWNSDSTLNSRQLEPRTETDSVGTPQSNGGMRLHDFVSKTVIKPESCVPCGKRIKFGKLSLKCRDCRVVSHPECRDRCPLPCIPTLIGTPVKIGEGMLADFVSQTSPMIPSIVVHCVNEIEQRGLTETGLYRISGCDRTVKELKEKFLRVKTVPLLSKVDDIHAICSLLKDFLRNLKEPLLTFRLNRAFMEAAEITDEDNSIAAMYQAVGELPQANRDTLAFLMIHLQRVAQSPHTKMDVANLAKVFGPTIVAHAVPNPDPVTMLQDIKRQPKVVERLLSLPLEYWSQFMMVEQENIDPLHVIENSNAFSTPQTPDIKVSLLGPVTTPEHQLLKTPSSSSLSQRVRSTLTKNTPRFGSKSKSATNLGRQGNFFASPMLK

Row | Molecule | binding
10 | ALIX (ALG2-interacting protein X, also known as programmed cell death 6 interacting protein, PDCD6IP) (endogenous) (from UniProt Q8WUM4 1-868) | binds
